Data: publication doi:10.1101/253294
No constants are given. Whether binding was seen depends on the method and setting. Some entries that bind do so weakly or less than the wild type. For some assays here: Sequences can lack the tags named with a protein. Each block holds one binder with its values, some of them ahead of it.

Protein sequences, listed by entry. Tags and fused reporters are not part of them.
UniProt Q15436: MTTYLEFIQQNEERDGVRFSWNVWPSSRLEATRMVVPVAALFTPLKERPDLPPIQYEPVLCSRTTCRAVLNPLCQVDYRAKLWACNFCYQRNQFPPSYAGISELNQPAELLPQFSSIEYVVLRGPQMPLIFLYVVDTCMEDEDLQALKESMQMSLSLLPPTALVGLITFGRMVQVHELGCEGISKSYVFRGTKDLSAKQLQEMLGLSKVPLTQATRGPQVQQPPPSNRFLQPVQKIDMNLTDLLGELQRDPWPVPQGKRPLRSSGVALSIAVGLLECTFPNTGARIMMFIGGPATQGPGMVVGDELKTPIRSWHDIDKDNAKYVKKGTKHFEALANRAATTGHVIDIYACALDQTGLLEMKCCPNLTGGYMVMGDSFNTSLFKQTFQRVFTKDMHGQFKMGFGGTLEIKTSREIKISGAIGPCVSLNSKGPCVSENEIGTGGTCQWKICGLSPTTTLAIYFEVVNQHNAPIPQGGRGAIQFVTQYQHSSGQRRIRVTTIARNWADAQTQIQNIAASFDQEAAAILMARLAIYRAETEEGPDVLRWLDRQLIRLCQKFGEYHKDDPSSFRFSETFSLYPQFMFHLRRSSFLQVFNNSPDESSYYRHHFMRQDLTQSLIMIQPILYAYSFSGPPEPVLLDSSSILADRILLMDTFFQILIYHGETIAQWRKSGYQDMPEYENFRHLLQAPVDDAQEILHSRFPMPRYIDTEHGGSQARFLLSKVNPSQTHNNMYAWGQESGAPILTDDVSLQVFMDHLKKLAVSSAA

Experiments:
[1] = biological target: His6-Sec23A (UniProt Q15436); assay: co-purification
[2] = biological target: T1, His6-Sec13 (UniProt P55735); assay: co-purification
T1 sequence: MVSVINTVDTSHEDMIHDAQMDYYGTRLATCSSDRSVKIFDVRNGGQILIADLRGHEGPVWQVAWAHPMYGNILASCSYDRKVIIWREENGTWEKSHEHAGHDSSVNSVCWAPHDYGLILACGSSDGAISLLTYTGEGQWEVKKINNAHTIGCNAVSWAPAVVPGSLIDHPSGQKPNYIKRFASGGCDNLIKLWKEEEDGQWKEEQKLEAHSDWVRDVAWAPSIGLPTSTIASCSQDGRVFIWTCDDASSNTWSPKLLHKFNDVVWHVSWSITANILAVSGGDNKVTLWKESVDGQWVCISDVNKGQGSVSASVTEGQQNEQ

binding [1]: binds
B1: Sec24B (protein, UniProt O95487 1-1268)
chain: MSAPAGSSHPAASARIPPKFGGAAVSGAAAPAGPGAGPAPHQQNGPAQNQMQVPSGYGLHHQNYIAPSGHYSQGPGKMTSLPLDTQCGDYYSALYTVPTQNVTPNTVNQQPGAQQLYSRGPPAPHIVGSTLGSFQGAASSASHLHTSASQPYSSFVNHYNSPAMYSASSSVASQGFPSTCGHYAMSTVSNAAYPSVSYPSLPAGDTYGQMFTSQNAPTVRPVKDNSFSGQNTAISHPSPLPPLPSQQHHQQQSLSGYSTLTWSSPGLPSTQDNLIRNHTGSLAVANNNPTITVADSLSCPVMQNVQPPKSSPVVSTVLSGSSGSSSTRTPPTANHPVEPVTSVTQPSELLQQKGVQYGEYVNNQASSAPTPLSSTSDDEEEEEEDEEAGVDSSSTTSSASPMPNSYDALEGGSYPDMLSSSASSPAPDPAPEPDPASAPAPASAPAPVVPQPSKMAKPFGYGYPTLQPGYQNATAPLISGVQPSNPVYSGFQQYPQQYPGVNQLSSSIGGLSLQSSPQPESLRPVNLTQERNILPMTPVWAPVPNLNADLKKLNCSPDSFRCTLTNIPQTQALLNKAKLPLGLLLHPFRDLTQLPVITSNTIVRCRSCRTYINPFVSFIDQRRWKCNLCYRVNDVPEEFMYNPLTRSYGEPHKRPEVQNSTVEFIASSDYMLRPPQPAVYLFVLDVSHNAVEAGYLTILCQSLLENLDKLPGDSRTRIGFMTFDSTIHFYNLQEGLSQPQMLIVSDIDDVFLPTPDSLLVNLYESKELIKDLLNALPNMFTNTRETHSALGPALQAAFKLMSPTGGRVSVFQTQLPSLGAGLLQSREDPNQRSSTKVVQHLGPATDFYKKLALDCSGQQTAVDLFLLSSQYSDLASLACMSKYSAGCIYYYPSFHYTHNPSQAEKLQKDLKRYLTRKIGFEAVMRIRCTKGLSMHTFHGNFFVRSTDLLSLANINPDAGFAVQLSIEESLTDTSLVCFQTALLYTSSKGERRIRVHTLCLPVVSSLADVYAGVDVQAAICLLANMAVDRSVSSSLSDARDALVNAVVDSLSAYGSTVSNLQHSALMAPSSLKLFPLYVLALLKQKAFRTGTSTRLDDRVYAMCQIKSQPLVHLMKMIHPNLYRIDRLTDEGAVHVNDRIVPQPPLQKLSAEKLTREGAFLMDCGSVFYIWVGKGCDNNFIEDVLGYTNFASIPQKMTHLPELDTLSSERARSFITWLRDSRPLSPILHIVKDESPAKAEFFQHLIEDRTEAAFSYYEFLLHVQQQICK

binding [2]: binds
B2: Sec31A (protein, UniProt O94979 1-1220)
chain: MKLKEVDRTAMQAWSPAQNHPIYLATGTSAQQLDATFSTNASLEIFELDLSDPSLDMKSCATFSSSHRYHKLIWGPYKMDSKGDVSGVLIAGGENGNIILYDPSKIIAGDKEVVIAQNDKHTGPVRALDVNIFQTNLVASGANESEIYIWDLNNFATPMTPGAKTQPPEDISCIAWNRQVQHILASASPSGRATVWDLRKNEPIIKVSDHSNRMHCSGLAWHPDVATQMVLASEDDRLPVIQMWDLRFASSPLRVLENHARGILAIAWSMADPELLLSCGKDAKILCSNPNTGEVLYELPTNTQWCFDIQWCPRNPAVLSAASFDGRISVYSIMGGSTDGLRQKQVDKLSSSFGNLDPFGTGQPLPPLQIPQQTAQHSIVLPLKKPPKWIRRPVGASFSFGGKLVTFENVRMPSHQGAEQQQQQHHVFISQVVTEKEFLSRSDQLQQAVQSQGFINYCQKKIDASQTEFEKNVWSFLKVNFEDDSRGKYLELLGYRKEDLGKKIALALNKVDGANVALKDSDQVAQSDGEESPAAEEQLLGEHIKEEKEESEFLPSSGGTFNISVSGDIDGLITQALLTGNFESAVDLCLHDNRMADAIILAIAGGQELLARTQKKYFAKSQSKITRLITAVVMKNWKEIVESCDLKNWREALAAVLTYAKPDEFSALCDLLGTRLENEGDSLLQTQACLCYICAGNVEKLVACWTKAQDGSHPLSLQDLIEKVVILRKAVQLTQAMDTSTVGVLLAAKMSQYANLLAAQGSIAAALAFLPDNTNQPNIMQLRDRLCRAQGEPVAGHESPKIPYEKQQLPKGRPGPVAGHHQMPRVQTQQYYPHGENPPPPGFIMHGNVNPNAAGQLPTSPGHMHTQVPPYPQPQPYQPAQPYPFGTGGSAMYRPQQPVAPPTSNAYPNTPYISSASSYTGQSQLYAAQHQASSPTSSPATSFPPPPSSGASFQHGGPGAPPSSSAYALPPGTTGTLPAASELPASQRTGPQNGWNDPPALNRVPKKKKMPENFMPPVPITSPIMNPLGDPQSQMLQQQPSAPVPLSSQSSFPQPHLPGGQPFHGVQQPLGQTGMPPSFSKPNIEGAPGAPIGNTFQHVQSLPTKKITKKPIPDEHLILKTTFEDLIQRCLSSATDPQTKRKLDDASKRLEFLYDKLREQTLSPTITSGLHNIARSIETRNYSEGLTMHTHIVSTSNFSETSAFMPVLKVVLTQANKLGV
